The values that follow come from paper PMC8113726.

Results are given in words; binding and its absence hold for the method and conditions named. In cells and extracts the contact can be indirect. Binding calls can cover weak binding; strength is not graded here.

The target of this experiment is glutathione S-transferase (GST)-fused Xenopus ADF/cofilin (XAC) (Xenopus). As to the kind of experiment: pull-down; GST-fused XAC immobilised on an affinity column; Xenopus laevis oocyte extracts applied; bound proteins eluted with 1 M NaCl, 2 mM MgCl2, 1 mM DTT, 20 mM HEPES-KOH pH 7.2; SDS-PAGE, Coomassie, bands identified by peptide sequencing; only the target purified.

B1: gelsolin (Xenopus laevis oocyte) (protein, UniProt P14885 1-417)
chain: FISKMGYPKQTQVQVLPESGETPLFKQFFKNWRDKEATDGMGVAYVPNHIAKIENVPFDVTVLHESPAMAAQHGMVDDGSGKKQIWRIENCEKVPVLESHYGQFYGGDSYIILYHYKSGGKQGQIIYTWQGDDSTKDEITASAILSAQLDEELGGGPVQVRVVQGKEPAHLISLFGGKPMIIYKGGTSREGGQTKDANVRLFQVRTSSSGFSRAVEVDNTASNLNSNDAFVLTTPSASYLWVGQGSTNVEKNGAKELLKILGVSASEIPEGQETDDFWGALGGKADYRTSARLKDKLNAHPPRLFACSNKTGRFIIEEVPGEISQDDLATDDVMLLDTWDQVYVWVGNEAQEDEKKEAIASAYKYIESDPANRDKRTPVAITKQGFEPPTFIGWFLGWEADYWDVDPLERAMAGLSS
Consider B1, for which the binding entry is given as “binds”.
